# The supplement of paper PMC11348887
# Structures can show the parent of a compound that is named as a salt. The list shows a part of the results. Most values lie at the level of the controls, where differences are scatter.
# Test system: hPSC-derived cortical neurons (WA09)
# Assay: nucleus area z-score vs screen plate; higher = larger nuclei (more mature)
# Conditions: 5 µM; treatment: days 7-14 after plating, readout day 21
row,Compound,nucleus area z-score
1,CCOC(N)=O [Urethane],3.28
2,COc1ccc2[nH]c([S@@+]([O-])Cc3ncc(C)c(OC)c3C)nc2c1 [Esomeprazole Magnesium],-0.676
3,CN1CCN(c2cccc(Nc3nc4c(-c5ccc(S(C)(=O)=O)cc5)cccn4n3)c2)CC1,0.346
4,CCN(CC)C(=S)SSC(=S)N(CC)CC [Disulfiram],0.441

# Test system: hPSC-derived cortical neurons (WA09)
# Assay: total neurite length per nucleus (MAP2) z-score; higher = more neurite growth
# Conditions: 5 µM; treatment: days 7-14 after plating, readout day 21
row,Compound,total neurite length per nucleus (z-score)
1,O=C1NC(=O)C(c2ccccc2[N+](=O)[O-])=C1Nc1ccc(O)c(Cl)c1,0.196
2,CCCOc1ccc(CCc2nc3cc(-c4c(C)noc4C)ccc3n2CCN2CCOCC2)cc1,-0.255
3,C[C@]12CCC(=O)C=C1[C@@H]1C[C@@H]1[C@H]1[C@@H]3[C@@H]4C[C@@H]4[C@@]4(CCC(=O)O4)[C@@]3(C)CC[C@@H]12 [Drospirenone],-1.09
4,CCOC(=O)c1cnc2ccc(-c3cncc(NS(=O)(=O)c4ccccc4)c3)cn12,1.2
5,OC[C@H]1O[C@@H](c2ccc(Cl)c(Cc3ccc(O[C@H]4CCOC4)cc3)c2)[C@H](O)[C@@H](O)[C@@H]1O,-0.0958
6,CCCCOc1ccc(C(=O)Nc2ccc(F)cc2F)cc1,0.381
7,Cc1cc2c(C(N)=O)cccc2n1-c1nc2c(c(NCc3ccccc3)n1)COCC2,-6.74
8,CC(C)(Oc1ccc(C(=O)c2ccc(Cl)cc2)cc1)C(=O)O [Fenofibric acid],-0.728
9,CC(C)c1c(C(=O)Nc2ccccc2)c(-c2ccccc2)c(-c2ccc(F)cc2)n1CC[C@@H](O)C[C@@H](O)CC(=O)O [Atorvastatin Calcium],-0.379
10,Nc1nc(Nc2ccc3c(c2)CCC(N2CCCC2)CC3)nn1-c1cc2c(nn1)-c1ccccc1CCC2 (stereo not drawn),-5.38
11,Cc1cc2c(cc1CC(=O)c1sccc1S(=O)(=O)Nc1onc(C)c1Cl)OCO2 [Sitaxentan sodium],-1.56
12,CCCCOc1ccc(CC(=O)NO)cc1 [Bufexamac],0.719
13,O=C(O)C(Cc1ccccc1[N+](=O)[O-])=NNc1nc(-c2ccc(Cl)c(Cl)c2)cs1 (mixture of isomers),0.622
14,CCC(CC)CC1(C(=O)Nc2ccccc2SC(=O)C(C)C)CCCCC1,-0.007
15,CCN(c1cc(C#CCN2CCOCC2)cc(C(=O)NCc2c(C)cc(C)[nH]c2=O)c1C)[C@H]1CC[C@H](N(C)CCOC)CC1,1.21
16,Cc1ncc(-c2ccnc(Nc3ccc(S(C)(=O)=O)cc3)n2)n1C(C)C,-2.53
17,C#C[C@]1(O)CC[C@H]2[C@@H]3CCC4=CC(=O)CC[C@@H]4[C@H]3C(=C)C[C@@]21CC [Etonogestrel],-0.284
18,CNCCC(Oc1ccc(C(F)(F)F)cc1)c1ccccc1 (stereo not drawn) [Fluoxetine HCl],-1.11
19,CN(C(=O)CN(CCO)CC(=O)N(C)C(C)(C)Cc1ccccc1)C(C)(C)Cc1ccccc1 [Oxethazaine],-1.86
20,COc1ccc(C(=O)Nc2sc3c(c2C(N)=O)CCCC3)cc1OC,-0.508

row,Compound,total neurite length per nucleus (z-score)
1,CC#CC(=O)N1CCC[C@H]1c1nc(-c2ccc(C(=O)Nc3ccccn3)cc2)c2c(N)nccn12 [Acalabrutinib (ACP-196)],-1.15
2,OC[C@H]1O[C@@H](Oc2cc(O)cc(/C=C/c3ccc(O)cc3)c2)[C@H](O)[C@@H](O)[C@@H]1O [Polydatin],0.301
3,CCCc1cc(-c2nc(-c3ccc(C)cc3)cs2)ccn1 [Fatostatin HBr],-0.417
4,COc1ccc(-n2nc(C(N)=O)c3c2C(=O)N(c2ccc(N4CCCCC4=O)cc2)CC3)cc1 [Apixaban],1.53
5,C[C@]12C=CC(=O)C=C1CC[C@H]1[C@@H]3C[C@@H](O)[C@](O)(C(=O)CO)[C@@]3(C)C[C@H](O)[C@@]12F [Triamcinolone],-0.101
6,Nc1nc(Nc2ccc(S(N)(=O)=O)cc2)nn1C(=O)c1c(F)cccc1F,-0.594
7,CC(C)(O)CC[C@@H](O)[C@](C)(O)[C@H]1CC[C@@]2(O)C3=CC(=O)[C@@H]4C[C@@H](O)[C@@H](O)C[C@]4(C)[C@H]3CC[C@]12C [20-Hydroxyecdysone],-0.294
8,CC(C)NCC(O)c1ccc(O)c(O)c1 (stereo not drawn) [Isoprenaline HCl],0.722
9,Cc1nc2ccc(NC(=O)Nc3ccnc4cccnc34)cc2o1,-0.42
10,NC(=O)c1ncn([C@@H]2O[C@H](CO)[C@@H](O)[C@H]2O)c1N [Acadesine],-1.52
11,COc1c(C)cnc(Cn2cnc3c(Cl)nc(N)nc32)c1C,-1.74
12,Cc1ccc(NC(=S)NNc2c([N+](=O)[O-])cc(C(F)(F)F)cc2[N+](=O)[O-])cc1Cl,0.995
13,Cc1nc2c(-c3cnc(N)nc3)nc(N3CCOCC3)nc2n1C(C)C,-2.63
14,CNC(=O)c1ccccc1Sc1ccc2c(/C=C/c3ccccn3)n[nH]c2c1 [Axitinib],0.179
15,CC[C@H](C)C(=O)O[C@H]1C[C@@H](C)C=C2C=C[C@H](C)[C@H](CC[C@@H]3C[C@@H](O)CC(=O)O3)[C@H]21 [Lovastatin],0.0302
16,CCOC(N)=O [Urethane],-2.89
17,COc1ccc2[nH]c([S@@+]([O-])Cc3ncc(C)c(OC)c3C)nc2c1 [Esomeprazole Magnesium],1.37
18,CN1CCN(c2cccc(Nc3nc4c(-c5ccc(S(C)(=O)=O)cc5)cccn4n3)c2)CC1,0.819
19,CCN(CC)C(=S)SSC(=S)N(CC)CC [Disulfiram],-0.143

# As a short view, some entries already given.
row,Compound,total neurite length per nucleus (z-score)
2,OC[C@H]1O[C@@H](Oc2cc(O)cc(/C=C/c3ccc(O)cc3)c2)[C@H](O)[C@@H](O)[C@@H]1O [Polydatin],0.301
3,CCCc1cc(-c2nc(-c3ccc(C)cc3)cs2)ccn1 [Fatostatin HBr],-0.417
4,COc1ccc(-n2nc(C(N)=O)c3c2C(=O)N(c2ccc(N4CCCCC4=O)cc2)CC3)cc1 [Apixaban],1.53
5,C[C@]12C=CC(=O)C=C1CC[C@H]1[C@@H]3C[C@@H](O)[C@](O)(C(=O)CO)[C@@]3(C)C[C@H](O)[C@@]12F [Triamcinolone],-0.101
6,Nc1nc(Nc2ccc(S(N)(=O)=O)cc2)nn1C(=O)c1c(F)cccc1F,-0.594
7,CC(C)(O)CC[C@@H](O)[C@](C)(O)[C@H]1CC[C@@]2(O)C3=CC(=O)[C@@H]4C[C@@H](O)[C@@H](O)C[C@]4(C)[C@H]3CC[C@]12C [20-Hydroxyecdysone],-0.294
8,CC(C)NCC(O)c1ccc(O)c(O)c1 (stereo not drawn) [Isoprenaline HCl],0.722
9,Cc1nc2ccc(NC(=O)Nc3ccnc4cccnc34)cc2o1,-0.42
10,NC(=O)c1ncn([C@@H]2O[C@H](CO)[C@@H](O)[C@H]2O)c1N [Acadesine],-1.52
11,COc1c(C)cnc(Cn2cnc3c(Cl)nc(N)nc32)c1C,-1.74
